At least one structure is not confirmed: it was looked up by name or label, or the drawing left a doubt.
Tests used:
[1] = system: transgene expression in Tet/GSK-3β mice; experiment: X-gal (LacZ) staining of P0 brain sections after perinatal doxycycline treatment; format: in vivo, mouse; conditions: perinatal doxycycline given to the mother, versus non treated mice
[2] = system: HD94 mice; conditions: doxycycline 2 mg/ml in the drinking water of pregnant mice from E15 to birth; cited from earlier work
[3] = system: transactivation of GSK-3β by tTA from the BitetO construct in COS cells; experiment: COS cell transfection with BitetO construct, tau and tTA plasmids; Western blot; format: cell-based; conditions: COS cells co-transfected with BitetO, 1 μg/ml tetracycline in the culture medium

## C[C@H]1c2cccc(O)c2C(=O)C2=C(O)[C@]3(O)C(=O)C(C(N)=O)=C(O)[C@@H](N(C)C)[C@@H]3[C@@H](O)[C@@H]21 [doxycycline]
[1]
  X-gal staining in the forebrain at P0: absent
[2]
  frequency of the four expected genotypes: 25%

## CN(C)[C@@H]1C(O)=C(C(N)=O)C(=O)[C@@]2(O)C(O)=C3C(=O)c4c(O)cccc4[C@@](C)(O)[C@H]3C[C@@H]12 [tetracycline]
[3]
  trans activation of GSK-3β (Western blot): abolished
